Taken from: PubChem BioAssay AID1159578 (Peter MacCallum Cancer Centre, 2015)
Screen: 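Knock-downs that alter how fast lymphatic endothelial cells migrate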 (primary screen). Cell system: human lymphatic endothelial cells. Reagents: siRNA pool against human genes, 40 nM. Duration: 48 h after transfection. Detection: 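High-content imaging of dye-stained cells in a scratch assay measures filled wound area and nuclei per well; duplicate means given as ratio to mock and robust z-score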. Direction: migration robust z-score: higher = faster migration into the scratch; nuclei per well: higher = more cells in the well. Rule for the call: 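Migration changed when robust z exceeds 2 or falls below -2 and mean nuclei number is at least 3300; otherwise not called changed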. Meaning of the calls: active = migration changed; inactive = no migration change, or too few cells.
The deposit covers about 18,000 reagents; this is a part drawn at random. About 1,030 of them (5.7%) count as active. 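Inactive calls also include pools with fewer than 3300 nuclei, whose migration was not assessed.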 The raw values are shown without normalisation. Unmarked entries are inactive. Further read-outs or replicates are left out here. No sequences are given here.

{"gene":"TSNAX","migration robust z-score":-0.22,"migration class with cell-count check":"migration z between -2 and 2; enough cells","nuclei per well, duplicate mean":6312}
{"gene":"PEX39","migration robust z-score":"2.02 (active)","migration class with cell-count check":"migration z above 2; enough cells","nuclei per well, duplicate mean":5799}
{"gene":"JOSD1","migration robust z-score":-0.52,"migration class with cell-count check":"migration z between -2 and 2; enough cells","nuclei per well, duplicate mean":5944}
{"gene":"TRAF3","migration robust z-score":0.5,"migration class with cell-count check":"migration z between -2 and 2; enough cells","nuclei per well, duplicate mean":4867}
{"gene":"TMED2","migration robust z-score":1.69,"migration class with cell-count check":"migration z between -2 and 2; enough cells","nuclei per well, duplicate mean":7010}
{"gene":"CEP128","migration robust z-score":0.7,"migration class with cell-count check":"migration z between -2 and 2; enough cells","nuclei per well, duplicate mean":5580}
{"gene":"PQBP1","migration robust z-score":0.99,"migration class with cell-count check":"migration z between -2 and 2; enough cells","nuclei per well, duplicate mean":5488}
{"gene":"GPR174","migration robust z-score":-1.12,"migration class with cell-count check":"migration z between -2 and 2; enough cells","nuclei per well, duplicate mean":6854}
{"gene":"CTNNBL1","migration robust z-score":0.04,"migration class with cell-count check":"migration z between -2 and 2; enough cells","nuclei per well, duplicate mean":5574}
{"gene":"ZFYVE26","migration robust z-score":-1.29,"migration class with cell-count check":"migration z between -2 and 2; enough cells","nuclei per well, duplicate mean":5397}
{"gene":"LINC03040","migration robust z-score":0.12,"migration class with cell-count check":"migration z between -2 and 2; enough cells","nuclei per well, duplicate mean":5674}
{"gene":"KDM6A","migration robust z-score":0.62,"migration class with cell-count check":"migration z between -2 and 2; enough cells","nuclei per well, duplicate mean":7508}
{"gene":"KCNK16","migration robust z-score":-1.04,"migration class with cell-count check":"migration z between -2 and 2; enough cells","nuclei per well, duplicate mean":3791}
{"gene":"ZNF215","migration robust z-score":0.11,"migration class with cell-count check":"migration z between -2 and 2; enough cells","nuclei per well, duplicate mean":5978}
{"gene":"COL5A2","migration robust z-score":0.04,"migration class with cell-count check":"migration z between -2 and 2; enough cells","nuclei per well, duplicate mean":5738}
{"gene":"DKK2","migration robust z-score":0.53,"migration class with cell-count check":"migration z between -2 and 2; enough cells","nuclei per well, duplicate mean":4084}
{"gene":"TENT4B","migration robust z-score":-0.83,"migration class with cell-count check":"migration z between -2 and 2; enough cells","nuclei per well, duplicate mean":6326}
{"gene":"SPTA1","migration robust z-score":0.57,"migration class with cell-count check":"migration z between -2 and 2; enough cells","nuclei per well, duplicate mean":5514}
{"gene":"BEND4","migration robust z-score":"-2.15 (active)","migration class with cell-count check":"migration z below -2; enough cells","nuclei per well, duplicate mean":6390}
{"gene":"PPP1CC","migration robust z-score":0.88,"migration class with cell-count check":"migration z between -2 and 2; enough cells","nuclei per well, duplicate mean":5714}
{"gene":"PUM3","migration robust z-score":-1.12,"migration class with cell-count check":"migration z between -2 and 2; enough cells","nuclei per well, duplicate mean":4916}

Single entries from above.
Under “migration class with cell-count check”, SPTA1 is entered as migration z between -2 and 2; enough cells
Result of ZNF215 under “migration robust z-score”: 0.11
Under “nuclei per well, duplicate mean”, TENT4B reads 6326
